PubChem BioAssay AID1224829, NIAID, 2016
In all, the deposit lists about 3,800 reagents; this is a part drawn at random. 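Calls cover raised and lowered translocation; gene median uses one vendor's three siRNAs; qiagen siRNAs acted more weakly than ambion siRNAs.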 The numbers tell different reagents against one gene apart.

- Purpose: 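Secondary check of hits that alter LPS-induced p65 translocation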 (follow-up of hits)
- Cells: mouse RAW264.7 G9 macrophage reporter cells
- Reagent: single siRNA against mouse genes, 100 nM
- Time to read-out: 2 days of siRNA knock-down, then 40 min of LPS before fixing
- Challenge: LPS (Salmonella minnesota R595) at 10 ng/ml
- Measured: 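Imaging of GFP-p65 after 40 min of LPS; nuclear over perinuclear ring intensity ratio, scaled to plate median and non-targeting control wells, given as z-score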
- Scale: p65 translocation z-score and gene median z-score, per vendor: higher = more nuclear NF-kappaB p65 after LPS
- Hit rule: 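An siRNA is called active when the mean z-score of its two replicates is above 2 or below -2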
- Calls: active = changed p65 translocation (either direction); inactive = no clear change

| Gene | reagent | siRNA vendor or control pool | p65 translocation z-score, replicate mean | p65 translocation z-score, replicate 1 | p65 translocation z-score, replicate 2 | gene median z-score, per vendor | activity call |
| --- | --- | --- | --- | --- | --- | --- | --- |
| Sfpq | 1 | ambion single siRNA | 0.316 | 0.153 | 0.479 | -0.682 | inactive |
| Sfpq | 2 | ambion single siRNA | -1.79 | -1.95 | -1.63 | -0.682 | inactive |
| Sfpq | 3 | ambion single siRNA | -0.682 | -0.898 | -0.466 | -0.682 | inactive |
| Sfpq | 4 | qiagen single siRNA | 0.565 | 0.712 | 0.418 | -0.337 | inactive |
| Sfpq | 5 | qiagen single siRNA | -2.04 | -1.59 | -2.5 | -0.337 | active |
| Sfpq | 6 | qiagen single siRNA | -0.337 | -0.807 | 0.133 | -0.337 | inactive |
| Gxylt2 | 1 | ambion single siRNA | -3.6 | -4.74 | -2.47 | -1.74 | active |
| Gxylt2 | 2 | ambion single siRNA | -0.859 | -1.11 | -0.611 | -1.74 | inactive |
| Gxylt2 | 3 | ambion single siRNA | -1.74 | -1.74 | – | -1.74 | inactive |
| Gxylt2 | 4 | qiagen single siRNA | -1.56 | -1.31 | -1.81 | -1.37 | inactive |
| Gxylt2 | 5 | qiagen single siRNA | -0.767 | -1.43 | -0.103 | -1.37 | inactive |
| Gxylt2 | 6 | qiagen single siRNA | – | – | – | -1.37 | inactive |
| Or5d35 | 1 | ambion single siRNA | -1.31 | -0.293 | -2.32 | -2.99 | inactive |
| Or5d35 | 2 | ambion single siRNA | -3.72 | -3.26 | -4.18 | -2.99 | active |
| Or5d35 | 3 | ambion single siRNA | -4.89 | -7.06 | -2.72 | -2.99 | active |
| Or5d35 | 4 | qiagen single siRNA | 0.0656 | -0.29 | 0.422 | 0.0656 | inactive |
| Or5d35 | 5 | qiagen single siRNA | 2.1 | 2.59 | 1.62 | 0.0656 | active |
| Or5d35 | 6 | qiagen single siRNA | -1.63 | -1.73 | -1.54 | 0.0656 | inactive |
| Neu1 | 1 | ambion single siRNA | 0.459 | 1.01 | -0.0955 | -0.411 | inactive |
| Neu1 | 2 | ambion single siRNA | -1.2 | -2.04 | -0.371 | -0.411 | inactive |
| Neu1 | 3 | ambion single siRNA | -0.691 | -0.451 | -0.93 | -0.411 | inactive |
| Neu1 | 4 | qiagen single siRNA | 2.33 | 3.16 | 1.49 | 1.78 | active |
| Neu1 | 5 | qiagen single siRNA | 1.4 | -0.59 | 3.4 | 1.78 | inactive |
| Neu1 | 6 | qiagen single siRNA | 0.912 | -0.236 | 2.06 | 1.78 | inactive |
| Ndor1 | 1 | ambion single siRNA | -2.45 | -1.32 | -3.57 | -2.6 | active |
| Ndor1 | 2 | ambion single siRNA | -5.41 | -5.88 | -4.93 | -2.6 | active |
| Ndor1 | 3 | ambion single siRNA | -1.31 | -0.998 | -1.63 | -2.6 | inactive |
| Ndor1 | 4 | qiagen single siRNA | 1.9 | 1.58 | 2.23 | 2.37 | inactive |
| Ndor1 | 5 | qiagen single siRNA | 3.43 | 2.51 | 4.36 | 2.37 | active |
| Ndor1 | 6 | qiagen single siRNA | 2 | 0.271 | 3.73 | 2.37 | inactive |
| Krt8 | 1 | ambion single siRNA | -0.602 | -1.13 | -0.0763 | -1.57 | inactive |
| Krt8 | 2 | ambion single siRNA | -4.67 | -7.33 | -2.01 | -1.57 | active |
| Krt8 | 3 | ambion single siRNA | – | – | – | -1.57 | inactive |
| Krt8 | 4 | qiagen single siRNA | -1.06 | -0.522 | -1.6 | -0.439 | inactive |
| Krt8 | 5 | qiagen single siRNA | 0.0819 | 1.29 | -1.13 | -0.439 | inactive |
| Krt8 | 6 | qiagen single siRNA | -0.185 | -0.0142 | -0.356 | -0.439 | inactive |
| Eif3e | 1 | ambion single siRNA | 0.899 | 0.557 | 1.24 | -0.885 | inactive |
| Eif3e | 2 | ambion single siRNA | -0.966 | -1.11 | -0.825 | -0.885 | inactive |
| Eif3e | 3 | ambion single siRNA | -3.02 | -0.945 | -5.1 | -0.885 | active |
| Eif3e | 4 | qiagen single siRNA | 1.64 | 1.52 | 1.75 | 1.52 | inactive |
| Eif3e | 5 | qiagen single siRNA | -1.77 | -1.77 | – | 1.52 | inactive |
| Eif3e | 6 | qiagen single siRNA | 1.7 | 0.657 | 2.75 | 1.52 | inactive |
| Ybey | 1 | ambion single siRNA | 4.8 | 6.2 | 3.4 | -0.184 | active |
| Ybey | 2 | ambion single siRNA | -2.21 | -2.03 | -2.4 | -0.184 | active |
| Ybey | 3 | ambion single siRNA | -0.184 | -0.184 | – | -0.184 | inactive |
| Ybey | 4 | qiagen single siRNA | 2.52 | 2.77 | 2.28 | 2.09 | active |
| Ybey | 5 | qiagen single siRNA | 2.09 | 1.99 | 2.19 | 2.09 | active |
| Ybey | 6 | qiagen single siRNA | 1.57 | 1.5 | 1.64 | 2.09 | inactive |
| Grap | 1 | ambion single siRNA | – | – | – | -2.24 | inactive |
| Grap | 2 | ambion single siRNA | -3.85 | -3.85 | – | -2.24 | active |
| Grap | 3 | ambion single siRNA | -2.04 | -2.24 | -1.84 | -2.24 | active |
| Grap | 4 | qiagen single siRNA | 1.66 | 0.418 | 2.91 | -0.0528 | inactive |
| Grap | 5 | qiagen single siRNA | 0.0301 | 0.583 | -0.523 | -0.0528 | inactive |
| Grap | 6 | qiagen single siRNA | -2.01 | -2.56 | -1.46 | -0.0528 | active |
| Hras | 1 | ambion single siRNA | -1.98 | -2.39 | -1.57 | -2.39 | inactive |
| Hras | 2 | ambion single siRNA | -4.34 | -5.13 | -3.55 | -2.39 | active |
| Hras | 3 | ambion single siRNA | 1.53 | 1.53 | – | -2.39 | inactive |
| Hras | 4 | qiagen single siRNA | -2.46 | -2.39 | -2.53 | -1.15 | active |
| Hras | 5 | qiagen single siRNA | -1.15 | -1.15 | – | -1.15 | inactive |
| Hras | 6 | qiagen single siRNA | 1.5 | 0.842 | 2.16 | -1.15 | inactive |
| Itga10 | 1 | qiagen single siRNA | 0.314 | 0.114 | 0.515 | 0.476 | inactive |
| Itga10 | 2 | qiagen single siRNA | 3.84 | 3.84 | – | 0.476 | active |
| Itga10 | 3 | qiagen single siRNA | -0.748 | -1.97 | 0.476 | 0.476 | inactive |
| Mrps23 | 1 | ambion single siRNA | -1.23 | -2.27 | -0.177 | -1.23 | inactive |
| Mrps23 | 2 | ambion single siRNA | 1.01 | 0.67 | 1.35 | -1.23 | inactive |
| Mrps23 | 3 | ambion single siRNA | -5.12 | -5.14 | -5.09 | -1.23 | active |
| Mrps23 | 4 | qiagen single siRNA | 0.948 | -0.0268 | 1.92 | 0.23 | inactive |
| Mrps23 | 5 | qiagen single siRNA | 0.734 | -0.208 | 1.68 | 0.23 | inactive |
| Mrps23 | 6 | qiagen single siRNA | -0.422 | -1.33 | 0.487 | 0.23 | inactive |

7 entries from above, set out differently:
Gxylt2 #6, siRNA vendor or control pool qiagen single siRNA | gene median z-score, per vendor: -1.37; activity call: inactive
Or5d35 #1, siRNA vendor or control pool ambion single siRNA | p65 translocation z-score, replicate mean: -1.31; p65 translocation z-score, replicate 1: -0.293; p65 translocation z-score, replicate 2: -2.32; gene median z-score, per vendor: -2.99; activity call: inactive
Or5d35 #2, siRNA vendor or control pool ambion single siRNA | p65 translocation z-score, replicate mean: -3.72; p65 translocation z-score, replicate 1: -3.26; p65 translocation z-score, replicate 2: -4.18; gene median z-score, per vendor: -2.99; activity call: active
Or5d35 #3, siRNA vendor or control pool ambion single siRNA | p65 translocation z-score, replicate mean: -4.89; p65 translocation z-score, replicate 1: -7.06; p65 translocation z-score, replicate 2: -2.72; gene median z-score, per vendor: -2.99; activity call: active
Or5d35 #4, siRNA vendor or control pool qiagen single siRNA | p65 translocation z-score, replicate mean: 0.0656; p65 translocation z-score, replicate 1: -0.29; p65 translocation z-score, replicate 2: 0.422; gene median z-score, per vendor: 0.0656; activity call: inactive
Or5d35 #5, siRNA vendor or control pool qiagen single siRNA | p65 translocation z-score, replicate mean: 2.1; p65 translocation z-score, replicate 1: 2.59; p65 translocation z-score, replicate 2: 1.62; gene median z-score, per vendor: 0.0656; activity call: active
Or5d35 #6, siRNA vendor or control pool qiagen single siRNA | p65 translocation z-score, replicate mean: -1.63; p65 translocation z-score, replicate 1: -1.73; p65 translocation z-score, replicate 2: -1.54; gene median z-score, per vendor: 0.0656; activity call: inactive
